According to PubChem BioAssay AID1347076 (National Center for Advancing Translational Sciences (NCATS), 2019):
Screen size: about 400,000 compounds; about 13,000 (3.2%) were called active. Inconclusive means that the source gave no clear call. Such entries were picked first, then a sample of the others. The call rests on the fitted dose curve; in most records, active means well fitted cell-killing curve with a large enough effect; inconclusive means small, poorly fitted or top-dose-only effect, or effect the other way; inactive means flat fitted curve, though single readings scatter. Where the call is inconclusive, the potency comes from a doubtful curve fit.
On the % scale 0 is the no-effect control and ±100 the full control effect; potency means the concentration at half of the fitted maximal effect.

Assay: qHTS assay for MDR1-selective chemotherapeutics: Primary screen using the drug-selected MDR subline cells KB-V1; further: nearly all actives have a fitted effect of over 60% in size
Details: KB-V1 MDR cells viability, CellTiter-Glo, 72 h; activity change, negative = cytotoxicity: at 46.1 µM (top of the series)
Method in brief: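 Cytotoxicity toward P-gp-expressing KB-V1 cells was determined as loss of CellTiter-Glo luminescence after 72 h at 37 degrees C. Compounds were tested in quantitative HTS format across a concentration range, with curves fitted to normalized data.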
With `CN(Cc1ccc(C(C)(C)C)cc1)C(=O)C1CSC2(C)CCC(=O)N12` (centres undefined) the “activity change, negative = cytotoxicity” value was inactive: 5.95%. For `Cc1ccc(-c2n[nH]c(=S)n2C)cc1Cl`, the Potency was active: 2.91 µM. For `Cc1ccc(NC(=S)NNc2ccc([N+](=O)[O-])cc2S(=O)(=O)Nc2ccccc2C(=O)O)cc1C`, the “activity change, negative = cytotoxicity” value was inactive: -8.96%. In the case of `CCNC(=O)c1ccc2c(c1)C1C3CCC(C3)C1C(c1ccccc1)N2` (centres undefined), the Potency is reported as inconclusive: 18.4 µM [cytotoxic, partial curve]. For `Cc1ccc2nc(C3CCN(S(=O)(=O)c4ccc5ccccc5c4)CC3)[nH]c2c1`, the Potency was inconclusive: 20.6 µM [cytotoxic, single point]. With `COC(=O)Cn1cnc(=O)c(C#N)c1/C=C/N(C)C` the Potency was inconclusive: 18.4 µM [rising, single point]. In the case of `COc1ccc(N(CC(=O)Nc2cccnc2)S(=O)(=O)c2ccc(C)cc2)cc1Cl`, the Potency is reported as inconclusive: 5.17 µM [cytotoxic, full curve]. With `CC(C)C(=O)N1CCN(c2ccccc2NC(=O)COc2ccccc2)CC1` the Potency was inconclusive: 2.59 µM [cytotoxic, full curve]. With `Cc1nc(SCC(=O)N2CCc3ccccc32)n[nH]1` the Potency was inconclusive: 23.1 µM [rising, partial curve]. For `COc1ccccc1-c1nnc2sc(-c3ccc(N(C)C)cc3)nn12`, the Potency was active: 0.058 µM. For `CCOC(=O)c1c(-c2ccc(C)cc2)csc1NC(=S)NC(=O)c1ccccc1`, the Potency was inconclusive: 29.1 µM [cytotoxic, single point]. With `CC(Oc1ccc(F)cc1)c1nnc(SCC(=O)N(c2ccccc2)C2CCS(=O)(=O)C2)o1` (centres undefined) the Potency was inconclusive: 29.1 µM [cytotoxic, single point]. With `COc1ccc(C(=O)Nc2ccc(Cl)cc2C(=O)NCc2ccco2)cc1` the Potency was inconclusive: 3.66 µM [cytotoxic, full curve]. For `COc1ccc(Cn2c(=O)c3[nH]cnc3n(-c3ccccc3C)c2=O)cc1`, the Potency was inconclusive: 29.1 µM [cytotoxic, single point]. With `CC(C)C[C@@H](CSc1ccccc1)N1CCN(CC(C)C)CCC1=O` the Potency was inconclusive: 7.31 µM [cytotoxic, partial curve]. For `COc1ccc(CNCC(O)COc2ccc(C(C)(C)c3ccccc3)cc2)cc1` (centres undefined), the Potency was inconclusive: 20.6 µM [cytotoxic, partial curve, poor fit]. With `CC(=O)c1ccc2c(c1)N(Cc1ccc3ccccc3c1)C(=O)C(C)S2` (centres undefined) the Potency was inconclusive: 18.4 µM [cytotoxic, single point]. For `Cc1ccc(C(=O)OCc2c(C)noc2C)cc1NC(=O)c1ccco1`, the Potency was inconclusive: 4.61 µM [cytotoxic, full curve]. With `CCN(CC(=O)N1CCN(Cc2ccccc2)CC1)S(=O)(=O)c1ccc(F)cc1` the Potency was inconclusive: 11.6 µM [cytotoxic, partial curve]. For `Cc1ccc(C(=O)Nc2nnc(COCCO)s2)cc1`, the “activity change, negative = cytotoxicity” value was inactive: -10.9%. For `CCOc1cc(N2CCOCC2)c(OCC)cc1NC(=O)Cc1cccc2ccccc12`, the Potency was inconclusive: 16.4 µM [cytotoxic, partial curve]. With `COCc1c(C(=O)N/N=C(/C)c2ccccc2)nnn1-c1nonc1N` the Potency was inconclusive: 29.1 µM [rising, single point]. For `CC(=O)N1c2ccccc2[C@H](C)[C@H]1C`, the Potency was inconclusive: 16.4 µM [rising, single point]. With `O=C([C@H](O)c1ccccc1)N1CCC[C@H]1CO` the Potency was inconclusive: 25.9 µM [rising, single point]. In the case of `O=C(O)c1ccccc1C(=O)NCCc1ccc(Cl)cc1`, the “activity change, negative = cytotoxicity” value is reported as inactive: 12.5%. With `COc1ccc2nc3n(c(=O)c2c1)-c1ncccc1C(=O)NC3CC(C)C` (centres undefined) the Potency was inconclusive: 10.3 µM [cytotoxic, partial curve, poor fit]. With `COCCCn1c(=N)c(C(=O)NCc2cccnc2)cc2c(=O)n3cc(C)ccc3nc21` the Potency was inconclusive: 11.6 µM [rising, partial curve]. In the case of `O=C(/C=C/c1ccccc1)NC(=S)Nc1ccccc1C(=O)NC1CCCCC1`, the Potency is reported as inconclusive: 5.8 µM [cytotoxic, partial curve]. With `Cc1cc(C)c(S(=O)(=O)Nc2ccc(N3CCOCC3)cc2)c(C)c1` the Potency was inconclusive: 16.4 µM [cytotoxic, single point]. In the case of `CC1CCN(c2ccc(NC(=O)C3CCCN3S(=O)(=O)c3ccc(F)cc3)cc2)CC1` (centres undefined), the “activity change, negative = cytotoxicity” value is reported as inactive: 2.74%. With `Nc1c(-c2ccccc2)c(CSc2nc3ccccc3[nH]2)nn1-c1cccc(C(=O)O)c1` the Potency was inconclusive: 20.6 µM [rising, single point]. In the case of `COc1ccc(N2CCN(S(=O)(=O)c3ccc(OC)cc3)CC2)cc1`, the Potency is reported as inconclusive: 16.4 µM [cytotoxic, single point]. For `CC1(C(=O)OCC(=O)Nc2nnc(-c3ccccc3)o2)CC1(Cl)Cl` (centres undefined), the Potency was inconclusive: 16.4 µM [cytotoxic, single point]. For `CN1C(=O)/C(=C\c2ccc(N(C)C)cc2)OC1=S`, the “activity change, negative = cytotoxicity” value was inactive: 24.9%. With `COc1ccc(CN2CCN(C(=O)c3cccs3)CC2)c(OC)c1OC` the “activity change, negative = cytotoxicity” value was inactive: -4.1%. With `CSCCC1NC2(C(=O)Nc3c(C)cc(Cl)cc32)[C@@H]2C(=O)N(C3CCCC3)C(=O)[C@H]12` (some centres undefined) the Potency was active: 4.61 µM. For `CN(C)S(=O)(=O)c1cccc(C(=O)Nc2ccc(Cl)cn2)c1`, the Potency was active: 23.1 µM. In the case of `Cc1ccc(NC(=S)NCc2ccccc2)cc1S(=O)(=O)N1CCCCC1`, the Potency is reported as active: 13 µM. With `COc1ccc(/C=C2\SC(=O)N(CCNC(=O)C3=COCCO3)C2=O)cc1` the Potency was active: 2.59 µM. In the case of `Cc1ccc(Cn2nc(C)c(NC(=O)CCCn3nc(C)c([N+](=O)[O-])c3C)c2C)cc1`, the Potency is reported as active: 9.2 µM. In the case of `N#Cc1c2n(c3c(=O)n(Cc4ccc(Cl)cc4)cnc13)CCCC2`, the Potency is reported as inconclusive: 10.3 µM [cytotoxic, partial curve]. In the case of `Cc1ccc(S(=O)(=O)N(CC2CO2)c2ccccc2[N+](=O)[O-])cc1` (centres undefined), the “activity change, negative = cytotoxicity” value is reported as inactive: -26.5%. In the case of `O=C(Cc1ccc([N+](=O)[O-])cc1)NCCS(=O)(=O)N1CCN(c2ccccc2)CC1`, the Potency is reported as inconclusive: 14.6 µM [cytotoxic, partial curve, poor fit]. For `Cc1cc(C)n2nc(CC(=O)NC3CCCCCC3)nc2n1`, the Potency was inconclusive: 20.6 µM [cytotoxic, partial curve, poor fit].
